Results taken from patent US20030152959.
For part of these data: Where cells or extracts were used, other partners may take part. For part of these data: Negatives hold for the conditions tested. For part of these data: The comparison behind a weaker result is the experiment's own reference, which may not be listed here. For part of these data: For at least one entry, the source does not settle the construct or the ends of the probe. For part of these data: Tags and fusion partners may be left off the protein sequences shown.

By UniProt entry, the sequences of proteins in these tests, tags left out. Residues count along the entry.
UniProt P11474, 1-173: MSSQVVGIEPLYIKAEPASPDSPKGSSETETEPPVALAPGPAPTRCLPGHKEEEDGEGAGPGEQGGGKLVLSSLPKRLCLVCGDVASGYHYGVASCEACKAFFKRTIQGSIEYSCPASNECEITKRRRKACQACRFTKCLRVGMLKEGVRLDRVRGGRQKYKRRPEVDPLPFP
UniProt P11474, 76-423: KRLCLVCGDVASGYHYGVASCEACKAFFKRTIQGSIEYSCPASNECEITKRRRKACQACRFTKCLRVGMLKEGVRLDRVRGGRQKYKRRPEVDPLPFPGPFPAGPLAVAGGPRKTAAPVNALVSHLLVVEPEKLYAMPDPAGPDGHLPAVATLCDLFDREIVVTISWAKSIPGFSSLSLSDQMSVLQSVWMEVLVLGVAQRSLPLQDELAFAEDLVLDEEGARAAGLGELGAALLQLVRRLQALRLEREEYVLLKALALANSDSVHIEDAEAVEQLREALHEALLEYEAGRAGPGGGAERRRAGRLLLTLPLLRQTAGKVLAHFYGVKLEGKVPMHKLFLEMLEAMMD
UniProt P11474, whole entry E97G/A98S/A101V: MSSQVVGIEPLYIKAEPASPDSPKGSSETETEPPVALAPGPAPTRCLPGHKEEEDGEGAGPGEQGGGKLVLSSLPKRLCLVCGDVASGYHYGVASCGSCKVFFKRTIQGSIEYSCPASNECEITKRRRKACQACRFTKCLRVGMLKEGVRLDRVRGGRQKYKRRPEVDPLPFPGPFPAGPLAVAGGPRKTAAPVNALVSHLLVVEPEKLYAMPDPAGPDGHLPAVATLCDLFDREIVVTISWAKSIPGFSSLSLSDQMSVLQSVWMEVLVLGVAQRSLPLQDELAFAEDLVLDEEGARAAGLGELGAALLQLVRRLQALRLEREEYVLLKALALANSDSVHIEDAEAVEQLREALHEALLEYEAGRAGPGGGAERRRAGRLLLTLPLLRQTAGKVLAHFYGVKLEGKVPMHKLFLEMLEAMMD
UniProt P11474, whole entry L413A/L418A: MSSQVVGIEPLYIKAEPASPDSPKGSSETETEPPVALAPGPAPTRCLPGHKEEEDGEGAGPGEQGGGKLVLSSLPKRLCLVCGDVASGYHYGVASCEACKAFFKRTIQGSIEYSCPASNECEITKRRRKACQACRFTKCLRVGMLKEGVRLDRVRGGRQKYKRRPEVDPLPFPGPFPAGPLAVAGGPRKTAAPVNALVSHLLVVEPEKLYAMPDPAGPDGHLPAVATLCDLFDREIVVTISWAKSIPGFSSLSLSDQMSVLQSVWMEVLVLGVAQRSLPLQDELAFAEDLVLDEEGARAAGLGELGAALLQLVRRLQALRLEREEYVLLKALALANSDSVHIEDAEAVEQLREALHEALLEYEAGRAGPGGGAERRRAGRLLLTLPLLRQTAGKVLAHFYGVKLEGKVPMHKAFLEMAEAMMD
UniProt P03372, whole entry: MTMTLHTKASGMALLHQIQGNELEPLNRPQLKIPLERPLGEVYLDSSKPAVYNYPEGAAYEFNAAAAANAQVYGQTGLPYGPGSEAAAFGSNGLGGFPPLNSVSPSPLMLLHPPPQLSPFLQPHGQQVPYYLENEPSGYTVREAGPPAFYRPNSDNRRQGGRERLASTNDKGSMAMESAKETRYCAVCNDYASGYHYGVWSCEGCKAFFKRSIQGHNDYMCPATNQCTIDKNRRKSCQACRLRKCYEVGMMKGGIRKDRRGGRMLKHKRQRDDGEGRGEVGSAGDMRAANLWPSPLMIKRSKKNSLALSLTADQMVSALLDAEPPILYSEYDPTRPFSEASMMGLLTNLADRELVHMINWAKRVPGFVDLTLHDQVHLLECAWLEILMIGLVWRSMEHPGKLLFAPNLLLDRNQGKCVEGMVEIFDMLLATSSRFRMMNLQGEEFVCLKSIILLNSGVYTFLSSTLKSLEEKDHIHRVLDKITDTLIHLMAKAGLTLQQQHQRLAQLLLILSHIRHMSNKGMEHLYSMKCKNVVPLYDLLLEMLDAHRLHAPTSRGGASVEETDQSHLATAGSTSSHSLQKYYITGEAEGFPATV

Experiments:
[1] = target: GST-ERRα1 (Homo sapiens) (UniProt P11474); assay: competition with a labelled probe; settings: sequence assigned from listing, purified recombinant protein, protein details: N-terminal GST, E. coli
[2] = target: GST-ERRα1 (Homo sapiens) (UniProt P11474); assay: footprint; settings: DNase I protection of one half-site; sequence assigned from listing; purified recombinant protein; protein details: N-terminal GST, E. coli
[3] = target: ERα (estrogen receptor alpha) (Homo sapiens) (UniProt P03372); assay: EMSA; settings: protein in a lysate after overexpression, protein details: COS / COS-M6 whole-cell extract
[4] = target: ERRα1 (estrogen-related receptor alpha 1, NR3B1) (Homo sapiens) (UniProt P11474); assay: EMSA; settings: protein in a lysate after overexpression, label: 32P
[5] = target: T1, COUP-TF1 (UniProt P10589); assay: EMSA; settings: sequence assigned from listing; protein in a lysate after overexpression; protein details: COS whole-cell extract; label: 32P
T1 sequence (looked up, limits assumed): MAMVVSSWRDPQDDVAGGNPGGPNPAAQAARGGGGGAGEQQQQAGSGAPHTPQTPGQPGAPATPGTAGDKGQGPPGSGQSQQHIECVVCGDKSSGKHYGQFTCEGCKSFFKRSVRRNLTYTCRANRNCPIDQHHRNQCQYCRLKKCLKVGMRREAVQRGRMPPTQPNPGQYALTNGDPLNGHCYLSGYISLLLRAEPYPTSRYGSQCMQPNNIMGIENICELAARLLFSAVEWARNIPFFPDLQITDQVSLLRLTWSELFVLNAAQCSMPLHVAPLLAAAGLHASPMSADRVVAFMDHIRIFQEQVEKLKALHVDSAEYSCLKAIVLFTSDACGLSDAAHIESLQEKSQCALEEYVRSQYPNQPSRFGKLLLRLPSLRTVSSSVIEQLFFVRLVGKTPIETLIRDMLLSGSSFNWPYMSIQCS

[6] = target: ERRα1 (estrogen-related receptor alpha 1, NR3B1) (Homo sapiens) (UniProt P11474); assay: activity in cells; settings: MCF-7, 3xERE-TK-luc reporter; protein in a lysate after overexpression; only the site is given
[7] = target: ERRα1 1-173 (Homo sapiens) (UniProt P11474); assay: EMSA; settings: protein in a lysate after overexpression; protein details: COS-M6 whole-cell extract; label: 32P
[8] = target: ERRα1 76-423 (Homo sapiens) (UniProt P11474); assay: EMSA; settings: protein in a lysate after overexpression; protein details: COS-M6 whole-cell extract; label: 32P
[9] = target: ERRα1 P-box E97G/A98S/A101V (Homo sapiens) (UniProt P11474); assay: EMSA; settings: protein in a lysate after overexpression; protein details: COS-M6 whole-cell extract; label: 32P
[10] = target: ERRα1 L413A/L418A (Homo sapiens) (UniProt P11474); assay: EMSA; settings: protein in a lysate after overexpression; protein details: COS-M6 whole-cell extract; label: 32P

“AGCTTCGAGGAGATCACAGTGATCTGGAGCGGATC (double strand) [Vitellogenin ERE core mutant]”: no binding ([1]; core mutant, complete loss, variant of Vitellogenin ERE).

“TCAGAGGTTATTTCAGGCCATGGT (double strand) [SV40 +1 site WT]”: binds [2].

“CCTGCAAGGTCACGGTGGCCACCCG (double strand) [pS2 ERE probe]”: binds more weakly ([3]; lower affinity than ERRα, label: 32P); binds ([4]; higher affinity than ERα).

“CGTTAAGGTTCCAAGGTCATGGACTG (double strand) [SV40 +55 UP mutant]”: binds ([1]; competed very well, variant of SV40 +55 site WT).

“AGCTAACTAAAGGTCACAAGCTGCTTCAGATGATC (double strand) [Prolactin D]”: binds ([1]; bound very well).

“GTTAAGGTTCGTAGGTCATGGA (double strand) [SV40 +55 site WT]”: binds ([1]; competed moderately, also DNase I and hydroxyl radical footprint).

“AGCTTCGAGGAGGTCACAGTGACCTGGAGCGGATC (double strand) [Vitellogenin ERE]”: binds ([1]; moderate, label: 32P); binds ([3]; more efficient than ERRα, sequence assigned from listing, label: …); no binding [5]. “AGCTTCGAGGAGGTCACAGTGACCTGGAGCGGATC (double strand) [Vitellogenin ERE]”: binds [4].

For “TAAGCTTAGGTCACAGTGACCTAAGCTTA (double strand) [Consensus palindromic ERE]”, the “activity on this sequence” value [6] was “active”, the binding result ([3]; supershifted by H222, 100 mM NaCl, label: 32P) was “binds” and the binding result [7] was “binds”. “TAAGCTTAGGTCACAGTGACCTAAGCTTA (double strand) [Consensus palindromic ERE]”: binds [8]; no binding [9]; binds [10]. “TAAGCTTAGGTCACAGTGACCTAAGCTTA (double strand) [Consensus palindromic ERE]”: binds [4].
